Assay results reported in patent US20120121603A1 (THERACLONE SCIENCES, published 2012).
No constants are given. Whether binding was seen depends on the method and setting. Some entries that bind do so weakly or less than the wild type.

Amino acid sequences for entries named in this document (tags omitted).
UniProt P06821: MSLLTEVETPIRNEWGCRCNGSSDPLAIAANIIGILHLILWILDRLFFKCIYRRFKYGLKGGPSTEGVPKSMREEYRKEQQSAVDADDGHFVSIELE

What was measured:
[1] = target: influenza A/Puerto Rico/8/34 (PR8) virus, M2 on virions (Influenza A virus A/Puerto Rico/8/34 (PR8)) (UniProt P06821); assay: binding to influenza virions
[2] = target: influenza A/Puerto Rico/8/34 (PR8) virus, M2 on virions (Influenza A virus A/Puerto Rico/8/34 (PR8)) (UniProt P06821); assay: ELISA, crude supernatant on PR8 virus coated plates
[3] = target: influenza A/Puerto Rico/8/34 (PR8) virus, M2 on virions (Influenza A virus A/Puerto Rico/8/34 (PR8)) (UniProt P06821); assay: ELISA, crude supernatant on influenza virus

Measured: binding

B1: 8I10 (antibody, V domains shown)
VH: QVQLQESGPGLVKPSETLSLTCTVSGSSISNYYWSWIRQSPGKGLEWIGFIYYGGNTKYNPSLKSRVTISQDTSKSQVSLTMSSVTAAESAVYFCARASCSGGYCILDYWGQGTLVTVSR
VL: DIQMTQSPSSLSASVGDRVTITCRASQNIYKYLNWYQQRPGKAPKGLISAASGLQSGVPSRFSGSGSGTDFTLTITSLQPEDFATYYCQQSYSPPLTFGGGTRVEIKR
binds: all assays above

B2: 21B15 (antibody, V domains shown)
VH: QVQLQESGPGLVKPSETLSLTCTVSGSSISNYYWSWIRQSPGKGLEWIGFIYYGGNTKYNPSLKSRVTISQDTSKSQVSLTMSSVTAAESAVYFCARASCSGGYCILDYWGQGTLVTVS
VL: DIQVTQSPSSLSASVGDRVTITCRASQNIYKYLNWYQQRPGKAPKGLISAASGLQSGVPSRFSGSGSGTDFTLTITSLQPEDFATYYCQQSYSPPLTFGGGTRVDIK
binds: all assays above
